# Percent effect of library compounds

Protein sequences, listed by entry. Tags and fused reporters are not part of them.
UniProt P9WNZ1, whole entry: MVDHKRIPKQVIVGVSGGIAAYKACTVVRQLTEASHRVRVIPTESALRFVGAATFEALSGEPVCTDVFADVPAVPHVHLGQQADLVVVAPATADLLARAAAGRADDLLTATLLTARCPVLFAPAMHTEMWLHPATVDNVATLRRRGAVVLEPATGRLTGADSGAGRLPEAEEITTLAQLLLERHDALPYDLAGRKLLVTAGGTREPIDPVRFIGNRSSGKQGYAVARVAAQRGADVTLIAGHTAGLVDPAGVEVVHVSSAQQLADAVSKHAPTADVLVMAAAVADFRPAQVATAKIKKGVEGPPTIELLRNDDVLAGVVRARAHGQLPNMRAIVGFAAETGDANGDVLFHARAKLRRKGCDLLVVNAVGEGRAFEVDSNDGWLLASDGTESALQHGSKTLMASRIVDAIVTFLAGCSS

Source: ChEMBL document CHEMBL3988442, “University of Dundee, Small-Polar-MMV Screening Library” (2021).

CoaBC: 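Coenzyme A biosynthesis protein CoaBC, Mycobacterium tuberculosis (UniProt P9WNZ1). Enzyme assay of CoaBC with a phosphate dye (Biomol Green) read at 650 nm. Compounds at 30 µM. Direction is inferred from only a few compounds that gave an IC50; most scored high, so higher reads as stronger inhibition. Most strong results did not repeat in a second test. Size under these conditions: about 67,000 compounds, about 40 of them at 50% or above in at least one test.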
Leishmania in macrophages: 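Cell assay of Leishmania donovani living inside macrophages; the read-out is not stated. Concentration: 30 µM. The record gives no direction; compounds that gave an IC50 in retests scored well above the rest, so higher reads as stronger inhibition. Size under these conditions: about 69,000 compounds, about 1,000 of them at 50% or above in at least one test.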

Results are given as percent effect. The record does not define 0% and 100%; most values in the screen are far below 50% and negative numbers occur (in some assays of this library far below -100). This is an unselected part of the compounds tested. Two or more numbers in one place are separate tests of the same structure; such repeats can differ widely. A dash means the value is not listed here; it may have been measured.

| compound | CoaBC | Leishmania in macrophages |
|---|---|---|
| `COCc1cncc2c1CCN(Cc1cnn(C)c1)C2` | -3.752% | - |
| `COc1ccccc1CN1CC[C@]2(C[C@@H](OCC(=O)N(C)C)CO2)C1` | 0% | - |
| `Cn1nccc1C(=O)N1CCCC1c1[nH]ncc1C(N)=O` (stereo not given) | 2.19% | 24.37% and 14.05% |
| `CCc1nc(NC2CCCN(C(=O)c3cccs3)C2)c2cnn(C)c2n1` (stereo not given) | -2.552% | 18.77% |
| `Cc1nn(CCNS(=O)(=O)c2ccccc2)c(C)c1Cl` | 2.299% | 36.77% |
| `O=C(NCc1cc(=O)n2c(n1)CN(CC1CC1)CCC2)c1ccsc1.O=C(O)C(F)(F)F` | - | 21.7% |
| `COCCO[C@@H]1CCN(Cc2csc(C)n2)[C@H]1Cc1ccccc1.O=C(O)C(F)(F)F` | - | -21.7% |
| `Cc1nc(C(=O)Nc2cc(N3CCNC3=O)ccc2Cl)cs1` | -7.391% | 31.47% |
| `NS(=O)(=O)CCNC(=O)CCc1cc(Br)cs1` | -11.55% | 7.87% |
| `CC(C)N1CC2(CCCN(Cc3noc(C4CCCC4)n3)C2)CCC1=O` (stereo not given) | 1.799% | 39.89% |
| `CC(C)N(C)Cc1cnc2n1CCN(Cc1ccco1)C2` | 3.557% | - |
| `[H][C@@]12CCN(CC3CCOCC3)[C@]1([H])CC[C@@H](c1nnc(C)o1)O2` | - | -1.342% |
| `COCC1CC2(CCN(C(=O)c3ccc(C)nc3)CC2)CO1.O=C(O)C(F)(F)F` (stereo not given) | - | 25.55% |
| `[H][C@@]12CCN(CC3CCOCC3)C[C@]1([H])OCCN(c1ccccc1)C2=O` | - | -71.45% |
| `CCCNC(=O)c1nn(CC)cc1Cl` | 1.617% | 39.92% |
| `Cc1ccc(F)cc1CC(=O)N(CCN1CCOCC1)Cc1ccco1` | 4.222% | -2.359% |
| `O=C(NCc1cccnc1)NCC(O)c1cccc(C(F)(F)F)c1` (stereo not given) | 2.439% | -0.214% |
| `COc1ccc(NC(=O)N(C)Cc2ccco2)cn1` | 1.653% | 8.053% |
| `O=C(O)C(F)(F)F.[H][C@@]12CC(COCc3ccccn3)C[C@@]1([H])N(C(=O)c1ccno1)CCO2` (stereo not given in full) | - | 6.888% |
| `CS(=O)(=O)N1CC(c2nc(N)ncc2-c2ccc(F)cc2)C1` | -6.503% | 38.37% |
| `COc1ccccc1CN1CCc2c(nc(-c3ccccn3)[nH]c2=O)C1` | 7.353% | 0.9065% |
| `Cc1ccsc1-c1nnc(C2CCN(Cc3ccc(F)cc3)CC2)o1` | 6.944% | 10.38% |
| `Cc1occc1C(=O)NCC(=O)NCCOc1cccc(Cl)c1` | 2.386% | 0.9532% |
| `Cc1ccc(N2CC[C@@H]3[C@@H]2CCN3C(=O)Cc2ccccc2)nn1` | 4.208% | - |
| `Cc1nc2ccc(C(=O)N3C[C@@H](O)[C@H](N4CCN(C)CC4)C3)cc2[nH]1` | 2.92% | 14.37% and 24.12% |
| `CNC(=O)c1cc2c(nc1NCC(C)C)CCN(CC1CC1)CC2.O=C(O)C(F)(F)F.O=C(O)C(F)(F)F` | - | 6.605% |
| `O=C(NCCn1ccnc1)N1CCCC1c1ccncc1` (stereo not given) | 6.579% | 24.31% |
| `COCCOCC(=O)N1CCCC(c2ncc[nH]2)C1` (stereo not given) | 4.43% | 5.765% |
| `Cc1cc(C(=O)NCC(C)N2CCc3ccccc32)on1` (stereo not given) | -12.6% | 2.475% |
| `CCn1cc(CN(C)Cc2cnn(-c3ccc(F)cc3)c2)cn1` | 8.466% and 34.89% | 21.45% |
| `CC(C)C1CCCN1C(=O)c1ccc(-n2ncc(C#N)c2N)cc1` (stereo not given) | - | 17.43% |
| `CN(C)S(=O)(=O)N1CCC(c2nnc(C(F)(F)F)o2)CC1` | 0.3764% | -19.99% |
| `CCS(=O)(=O)N1CCc2onc(COc3ccccn3)c2C1.O=C(O)C(F)(F)F` | - | 10.45% |
| `Cc1cccc(CNc2cc(C3CCCNC3)ccn2)n1.Cl` (stereo not given) | - | 46.09% |
| `Cc1nn(C)c(C)c1C1SCC(=O)Nc2c1c(O)nn2C(C)C` (stereo not given) | 2.532% | -6.65% and 25.04% |
| `COCC(=O)N1CCc2ccc(=O)n(Cc3csc(C)n3)c2CC1.O=C(O)C(F)(F)F` | - | -14.99% |
| `Cc1nc(CN2CCc3nn(C)c(=O)cc3C2)oc1C` | -1.695% | 27.3% |
| `CN(CCOc1ccc(F)cc1)S(=O)(=O)N1CCOCC1` | 6.774% | 23.07% |
| `Cc1nn2cc(CNc3nccc(CCC(F)(F)F)n3)nc2s1` | 5.34% | -15.33% |
| `CC(=O)c1c(F)cccc1NCC(O)C1CC1` (stereo not given) | 2.785% | 15.83% and 14.88% |
| `CCOC(=O)Cc1csc(NC(=O)c2cc3n(n2)CCCO3)n1` | 1.533% | -27.38% |
| `N#Cc1cn(CC(=O)NC2CC2)c2ccc(Br)cc2c1=O` | -8.482% | 26.02% |
| `CNS(=O)(=O)c1cccc(C(=O)N(C)Cc2ccsc2)c1` | -0.9558% | -5.495% |
| `CC(=O)NCc1cc2n(n1)CCN(Cc1cc(-c3ccccc3)no1)C2` | 4.684% | -27.21% |
| `NC(=O)[C@@H]1CCCN1C(=O)c1cn(C/C=C/c2ccccc2)nn1` | 3.562% | 7.485% and 12.16% |
| `O=C(c1ccon1)N1CCc2ncnc(NCc3ccccn3)c2CC1` | -3.171% | -13.37% |
| `CC(C)N1CCOCC2(CCCN(C(=O)c3cn(C)cn3)C2)C1` (stereo not given) | 2.28% | - |
| `CN(CC(N)=O)CC(=O)N1CC=C(c2ccccc2)CC1` | 3.412% | -7.889% |
| `COc1c(CNCc2cccc(Cn3ccnc3C)c2)c(C)nn1C.Cl` | - | 52.6% |
| `Cc1nc(CSc2ccc(C(F)(F)F)cn2)no1` | 5.696% | 15.74% |
| `CC(C)N1CCC(N(C)c2ccnc(N(C)C)n2)CC1` | -2.479% | 22.82% |
| `Cn1nccc1C(=O)N1CCOC(Cc2ccc(Cl)cc2)C1` (stereo not given) | 0.9732% | -10.11% and -10.44% |
| `CCC(CC)(CNC(=O)OC(C)(C)C)NC(=O)c1cnccn1` | 5.832% | 17.68% |
| `Cl.Cl.OC(CN1CCN(Cc2cc(F)ccc2F)CC1)C1CC1` (stereo not given) | - | 43.93% |
| `CC(NC(=O)c1cccs1)C(=O)NCc1ccccc1CN1CCCC1` (stereo not given) | 1.928% | 24.96% |
| `CC(C)c1nnc2n1CCN(CCS(=O)(=O)c1ccccc1)C2` | 3.864% | -16.33% |
| `CN(CC(=O)N(C)C(c1ccc(Cl)cc1)c1cccnc1)C1CC1` (stereo not given) | -0.8505% | 2.988% |
| `COCC(=O)N1CCCCC1c1ccnc(Nc2cnccn2)n1` (stereo not given) | -3.841% | 10.57% |
| `Cc1ccc(C)c(C(NC(=O)C2CC2)c2cccnc2)c1` (stereo not given) | 2.915% | 14.87% |